The source of these data is PubChem BioAssay AID284 (DTP/NCI, 2004).

The list shows only some results of the screen, not a fair sample: it gathers tests that were run many times, whatever their T/C, doses with no T/C, and many T/C values between a quarter and a half above the control. Other doses and runs of a compound stand elsewhere. T/C: endpoint of the treated group in % of that of the vehicle group. Some doses have a count of surviving animals in place of a T/C: the source holds a T/C of zero for them, seemingly a mark for toxic or unscored doses. Some survivor counts are full or nearly so, which does not show that the dose was tolerated: the source hardly ever lists a survival T/C far under the control, and the zero likely stands for such cases as well. Counts of survivors are from the toxicity check (mostly the fifth day) where no day follows; animals may have died later. Schedule codes are those of the source, read here as Q, the interval in days (D) or hours (H), X, the number of doses. Some schedules carry Z or #; the key to these is not given. Some molecules as drawn cover several salts, stereoisomers or complexes of the source; a dose is that of the sample tested. For survival time, the PubChem record calls one and a half times the control and up active, and a quarter to a half above the control has no call in these data; cut-offs in other NCI protocols can differ. Some doses were run more than once; the results are listed from low to high. Some T/C values carry the count of animals alive at the toxicity check (mostly the fifth day); where none is given, no animal had died by that day.

The test has as its system BDF1 mice, L1210/MTX-resistant leukemia ip, survival T/C. In words: NCI In Vivo Anticancer Drug Screen. Data for tumor model L1210 Leukemia resistant to Methotrexate; NSC 740 (intraperitoneal) in B6D2F1 (BDF1) mice. As to conditions: T/C endpoint: mean survival time, higher T/C = longer survival. On the procedure:
The antitumor activity of compounds was measured in mice bearing transplantable tumors. Survival or tumor size were measured and the results are expressed as the measurement made in the treated group (T) divided by the measurement made in the vehicle treated control group (C). The tumor model used in this assay is L1210 Leukemia resistant to Methotrexate; NSC 740 (intraperitoneal) in B6D2F1 (BDF1) mice

On to `CCCSc1ncnc2nc[nH]c12`, for which the survivor count was 6 of 6 (dose: 1.0 mg/kg/injection, schedule: Q01DX Z (ip), vehicle: other); 1 of 6 (dose: 350.0 mg/kg/injection, schedule: Q01DX Z (ip), vehicle: other); 0 of 6 (dose: 500.0 mg/kg/injection, schedule: Q01DX Z (ip), vehicle: other).

Turning to `Nc1nc(N)c2nc(CN(CCO)c3ccc(C(=O)NC(CCC(=O)O)C(=O)O)cc3)cnc2n1` (centres undefined), the survivor count (dose: 1.0 mg/kg/injection, schedule: Q01DX009 (ip), vehicle: sodium bicarbonate) was 6 of 6; the survivor count (dose: 2.0 mg/kg/injection, schedule: Q01DX009 (ip), vehicle: sodium bicarbonate) is on record as 6 of 6; the survivor count (dose: 4.0 mg/kg/injection, schedule: Q01DX009 (ip), vehicle: sodium bicarbonate) was 6 of 6; the survivor count (dose: 8.0 mg/kg/injection, schedule: Q01DX009 (ip), vehicle: sodium bicarbonate) is listed as 6 of 6; the survivor count (dose: 16.0 mg/kg/injection, schedule: Q01DX009 (ip), vehicle: sodium bicarbonate) was 6 of 6.

With `O=C(Nc1ccc(C2=NCCN2)cc1)c1ccc(C(=O)Nc2ccc(C3=NCCN3)cc2)c(Cl)c1`, the T/C by setting is: (dose: 2.0 mg/kg/injection, schedule: Q01DX010 (ip), vehicle: other) 140 % of control; (dose: 4.0 mg/kg/injection, schedule: Q01DX010 (ip), vehicle: other) 136 and 143 % of control; (dose: 8.0 mg/kg/injection, schedule: Q01DX010 (ip), vehicle: other) 134 % of control; (dose: 10.0 mg/kg/injection, schedule: Q01DX Z (ip), vehicle: saline) 141 % of control [5 of 6 alive]; (dose: 13.0 mg/kg/injection, schedule: Q02DX010 (ip), vehicle: carboxymethylcellulose (CMC)) 138 % of control; (dose: 20.0 mg/kg/injection, schedule: Q01DX Z (ip), vehicle: saline) 97, 131, 148, 153 % of control. The T/C by setting is: (dose: 20.0 mg/kg/injection, schedule: Q02DX010 (ip), vehicle: carboxymethylcellulose (CMC)) 143 % of control; (dose: 40.0 mg/kg/injection, schedule: Q01DX Z (ip), vehicle: saline) 94, 108, 123, 161 % of control. The survivor count (dose: 160.0 mg/kg/injection, schedule: Q01DX Z (ip), vehicle: other) was 6 of 6.

Regarding `CC(=O)O[C@]1(C(C)=O)CC[C@H]2[C@@H]3C[C@H](C)C4=CC(=O)C=C[C@]4(C)[C@@]3(F)[C@@H](O)C[C@@]21C`, the T/C runs as follows: (dose: 50.0 mg/kg/injection, schedule: Q01DX Z (sc), vehicle: steroid suspending solution) 139 % of control; (dose: 75.0 mg/kg/injection, schedule: Q01DX Z (sc), vehicle: steroid suspending solution) 145 % of control; (dose: 100.0 mg/kg/injection, schedule: Q01DX Z (sc), vehicle: steroid suspending solution) 133 % of control. Also, the survivor count is given as 6 of 6 (dose: 187.0 mg/kg/injection, schedule: Q01DX Z (sc), vehicle: steroid suspending solution); 6 of 6 (dose: 250.0 mg/kg/injection, schedule: Q01DX Z (sc), vehicle: steroid suspending solution); 6 of 6 (dose: 375.0 mg/kg/injection, schedule: Q01DX Z (sc), vehicle: steroid suspending solution); 6 of 6 (dose: 500.0 mg/kg/injection, schedule: Q01DX Z (sc), vehicle: steroid suspending solution).

For the compound `CCCCn1cnc2c(=S)nc[nH]c21`, the survivor count (dose: 128.0 mg/kg/injection, schedule: Q01DX010 (ip), vehicle: saline) is 6 of 6.

Take `CSc1ncnc2c1ncn2C1OC(CO)C(O)C1O` (centres undefined): the T/C (dose: 5.0 mg/kg/injection, schedule: Q01DX010 (ip), vehicle: saline) was 140 % of control. Moreover, the survivor count is 6 of 6 (dose: 25.0 mg/kg/injection, schedule: Q01DX Z (ip), vehicle: saline) and 6 of 6 (dose: 50.0 mg/kg/injection, schedule: Q01DX Z (ip), vehicle: saline).

Turning to `O=C(Nc1ccc(C2=NCCN2)cc1)c1ccc(C(=O)Nc2ccc(C3=NCCN3)cc2)cc1`, the T/C (dose: 40.0 mg/kg/injection, schedule: Q01DX Z (ip), vehicle: methylcellulose (MC)) was 144 % of control.

Take `CC(=O)Nc1ccc2nc3ccc(NC(C)=O)cc3[n+](-c3ccccc3)c2c1`: the survivor count (dose: 1.0 mg/kg/injection, schedule: Q01DX Z (ip), vehicle: carboxymethylcellulose (CMC)) was 6 of 6; the survivor count (dose: 25.0 mg/kg/injection, schedule: Q01DX Z (ip), vehicle: carboxymethylcellulose (CMC)) is 6 of 6; the survivor count (dose: 50.0 mg/kg/injection, schedule: Q01DX Z (ip), vehicle: carboxymethylcellulose (CMC)) is listed as 6 of 6; the survivor count (dose: 75.0 mg/kg/injection, schedule: Q01DX Z (ip), vehicle: carboxymethylcellulose (CMC)) was 6 of 6; the survivor count (dose: 100.0 mg/kg/injection, schedule: Q01DX Z (ip), vehicle: carboxymethylcellulose (CMC)) is given as 5 of 6.
